{"sequences": {"note": "Amino acid sequences for entries named in this document (tags omitted).", "UniProt P08183, whole entry": "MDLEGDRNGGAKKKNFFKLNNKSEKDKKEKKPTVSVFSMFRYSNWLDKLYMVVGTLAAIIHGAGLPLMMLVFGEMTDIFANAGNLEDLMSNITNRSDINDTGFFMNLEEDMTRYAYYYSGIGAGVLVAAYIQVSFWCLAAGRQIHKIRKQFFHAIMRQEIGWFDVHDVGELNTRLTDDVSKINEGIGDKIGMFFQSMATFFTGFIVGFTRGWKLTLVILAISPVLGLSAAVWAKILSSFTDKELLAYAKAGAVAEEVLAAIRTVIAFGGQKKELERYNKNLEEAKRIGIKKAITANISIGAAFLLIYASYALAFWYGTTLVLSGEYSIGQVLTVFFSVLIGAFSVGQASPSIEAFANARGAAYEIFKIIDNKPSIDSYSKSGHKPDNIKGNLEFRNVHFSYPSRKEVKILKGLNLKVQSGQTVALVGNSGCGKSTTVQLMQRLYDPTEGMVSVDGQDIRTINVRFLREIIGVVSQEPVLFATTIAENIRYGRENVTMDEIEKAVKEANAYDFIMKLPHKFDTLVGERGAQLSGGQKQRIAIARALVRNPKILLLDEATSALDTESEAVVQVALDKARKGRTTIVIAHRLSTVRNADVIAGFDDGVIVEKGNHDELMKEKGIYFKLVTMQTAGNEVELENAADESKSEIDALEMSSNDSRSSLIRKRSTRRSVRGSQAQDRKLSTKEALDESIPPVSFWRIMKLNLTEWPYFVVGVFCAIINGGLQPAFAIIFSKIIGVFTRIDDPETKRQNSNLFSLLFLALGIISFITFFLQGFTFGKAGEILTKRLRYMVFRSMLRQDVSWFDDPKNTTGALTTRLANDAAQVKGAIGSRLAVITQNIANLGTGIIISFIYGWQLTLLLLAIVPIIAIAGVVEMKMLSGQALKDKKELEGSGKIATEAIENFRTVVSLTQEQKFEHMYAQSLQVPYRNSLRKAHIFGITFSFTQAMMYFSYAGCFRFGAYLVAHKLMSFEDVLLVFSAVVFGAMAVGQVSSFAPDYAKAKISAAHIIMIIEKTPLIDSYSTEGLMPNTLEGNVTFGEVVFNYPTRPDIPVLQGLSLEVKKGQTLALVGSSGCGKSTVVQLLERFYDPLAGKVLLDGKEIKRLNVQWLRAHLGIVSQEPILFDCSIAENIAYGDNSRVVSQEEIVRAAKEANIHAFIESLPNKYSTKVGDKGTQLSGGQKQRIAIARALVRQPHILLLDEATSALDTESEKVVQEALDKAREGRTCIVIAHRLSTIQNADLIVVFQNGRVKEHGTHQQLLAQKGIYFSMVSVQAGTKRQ"}, "source": "paper PMC3401594", "about": "(International Journal of Pharmaceutics, 2009)", "key": {"[1]": {"target": "recombinant human P-gp (Homo sapiens, UniProt P08183)"}, "[2]": {"conditions": "ref Casy and Parfitt, 1986; cited from earlier work"}, "[3]": {"assay": "Intravenous to intraventricular ED10 ratio", "conditions": "from values of ref Casy and Parfitt, 1986"}}, "note": "Marks after values point to notes of the source that are not given here.", "data": [{"molecule": "CN1CC[C@]23c4c5ccc(O)c4O[C@H]2[C@@H](O)C=C[C@H]3[C@H]1C5", "note": "[Morphine]", "values": [{"measurement": "P-gp affinity status from P-gp ATPase assay", "setting": "[1]", "result": "P-gp substrate"}, {"measurement": "Fold stimulation of basal P-gp-ATPase activity", "setting": "[1]; human", "result": "1.54 ± 0.08 ^b fold"}, {"measurement": "Rate of ATP consumption versus non-treated control (significance)", "setting": "[1]; human", "result": "significantly different (p < 0.05)"}, {"measurement": "Intravenous to intraventricular ED10 ratio", "setting": "[2]", "result": 910}, {"measurement": "ED10 ratio relative to that of meperidine", "setting": "[3]", "result": "~ 107 fold"}]}]}
